According to PubChem BioAssay AID2685 (National Center for Advancing Translational Sciences (NCATS), 2010):
The other results are listed elsewhere or left out. Shown are side measurements of this screen, not its main read-out; they come without a call. Compounds called inactive in the main read-out are mostly missing here. Words in brackets tell the shape of the fitted curve; partial curves, single points and poor fits give uncertain potencies.

Assay: qHTS Assay for Lipid Storage Modulators in Drosophila S3 Cells;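 as to cell number change: cells counted by Cell Tracker Red CMTPX staining in the red channel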
Conditions: BODIPY lipid droplet fluorescence, 18-24 h; for cell number change: measured here: cell count max response, cells fed with added oleic acid
In short: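 Laser-scanning cytometry quantifies lipid droplet accumulation (500–530 nm total intensity; droplet/cell object ratio) in oleic acid-fed (400 uM added) Drosophila S3 cells treated with a concentration series. 20 uM Triacsin C defined 100% inhibition.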

[1] = measured here: lipid fluorescence (Fed channel) AC50, cells fed with added oleic acid
[2] = measured here: cell number channel AC50, cells fed with added oleic acid

| SMILES | cell number change [%] | AC50 [1] | AC50 [2] |
| --- | --- | --- | --- |
| COc1ccc(-c2cc(=NCCCCCC(=O)O)c3cc(C)ccc3o2)cc1 | -0.648 |  |  |
| CN(C)P(=O)(CCl)Nc1ccccc1 (centres undefined) | -13.3 | 0.13 µM [falling, full curve, poor fit] |  |
| COc1ccc(OC)c(/C=N/OC(=O)Nc2ccc(Cl)cc2)c1 | -13.1 |  |  |
| CC(=O)Nc1ccccc1C(=O)OCc1ccc(F)cc1 | 18.4 | 32.6 µM [rising, partial curve, poor fit] |  |
| CCN1C(=O)NC(=O)/C(=C\c2cn(CC(=O)N3CCCCC3C)c3ccccc23)C1=O (centres undefined) | -18.1 |  |  |
| O=S(=O)(c1ccc(F)cc1)N1CCCC1c1cccnc1 (centres undefined) | 0.746 | 6.51 µM [falling, single point] |  |
| Cc1ncc(CN2CCCC(C(=O)c3ccc(C(C)(C)C)cc3)C2)s1 (centres undefined) | -26.4 | 0.651 µM [falling, full curve, poor fit] |  |
| Cc1cc(OCC(=O)O)c2c3c(c(=O)oc2c1)CCCC3 | 7.15 |  |  |
| O=C(CN1CCN(Cc2cccc(Cl)c2)C1=O)N1CCC2(CC1)OCCO2 | 2.33 | 29.1 µM [rising, single point] | 0.00461 µM [falling, full curve, poor fit] |
| CN1CCc2cc3c(cc2[C@H]1[C@@H]1OC(=O)c2c1ccc1c2OCO1)OCO3 | 18.7 | 1.03 µM [rising, full curve] |  |
| CCOC(=O)C1(CCOc2ccccc2)CCN(C(C)CSC)CC1 (centres undefined) | 17.6 |  |  |
| CN1CC(C(=O)c2ccc(Cl)cc2)C(c2ccc(Cl)cc2Cl)C1 (centres undefined) | -47.9 | 16.4 µM [falling, partial curve] | 13 µM [falling, partial curve] |
| O=c1cccc2n1CC1CC2CN(Cc2ccc3c(c2)OCO3)C1 (centres undefined) | 13.5 |  |  |
| CNC(=O)Nc1ccc(C(O)(C(=O)OC)C(F)(F)F)cc1 (centres undefined) | 3.63 | 6.51 µM [rising, partial curve, poor fit] | 6.51 µM [rising, single point] |
| O=C1NC(=O)C(=Cc2ccc(Oc3ccc([N+](=O)[O-])cc3)cc2)C(=O)N1 | 59 | 11.6 µM [rising, partial curve, poor fit] | 29.1 µM [rising, single point] |
| CN(C)C(=O)Oc1cccc(-c2cn3cc(Cl)ccc3n2)c1 | 17.1 | 29.1 µM [rising, single point] |  |
| Cc1ccc2c(c1)CNc1ccccc1O2 | -40.7 |  | 29.1 µM [falling, single point] |
| C/C=C/c1ccc2c(c1)OCO2 | -10.5 | 0.0116 µM [falling, full curve, poor fit] |  |
| O=C(c1ccccc1)c1ccc(OC(=O)N2CCOCC2)cc1 |  |  | 32.6 µM [falling, partial curve, poor fit] |
| COc1ccc(-c2cc(-c3ccccc3)[n+](C)c(-c3ccccc3)c2)cc1 | -69.7 | 13 µM [falling, partial curve] | 13 µM [falling, partial curve, poor fit] |

| SMILES | cell number change [%] | AC50 [1] | AC50 [2] |
| --- | --- | --- | --- |
| Cn1c(=O)n(CC(=O)N2CCC3(CC2)OCCO3)c(=O)c2ccccc21 |  |  | 2.06 µM [rising, partial curve, poor fit] |
| O=C1NC(=O)C(=Cc2ccc(N3CCOCC3)cc2)C(=O)N1 | -39.3 | 0.116 µM [rising, full curve, poor fit] | 3.26 µM [falling, single point] |
| CN(CCc1ccccc1)Cc1c[nH]c2ccccc12 |  | 29.1 µM [falling, single point] |  |
| COc1cccc(-n2nc(C(=O)N3CCC4(CC3)OCCO4)c3ccccc3c2=O)c1 | 8.52 | 6.51 µM [rising, single point] |  |
| O=C(Cc1ccccc1)N1CCN(Cc2ccc(F)cc2)CC1 | 19.9 |  |  |
| Cn1c(O)c(/C=N/NC(=O)c2ccncc2)c(=O)[nH]c1=S | 4.23 |  |  |
| CC1CCCCC1NC1CCN(C)CC1 (centres undefined) | 7.14 | 5.8 µM [falling, single point] |  |
| N#CC1=C(N)Oc2cc(O)ccc2C1c1ccc2c(c1)OCO2 (centres undefined) | -3.73 |  | 2.91 µM [rising, single point] |
| O=c1[nH]c2ccccc2c(=O)n1-c1ccc(Cl)cc1Cl | 8.68 |  |  |
| CC(C)CN1CCN(Cc2ccc(F)cc2Cl)CC1CCO (centres undefined) | 10.1 | 0.116 µM [falling, full curve, poor fit] |  |
| CCC(=NCCN1CCCCC1)c1c(O)n(C)c(=O)n(C)c1=O | -176 |  | 29.1 µM [falling, single point] |
| Oc1ccc(Cl)c(Cl)c1Cl | -6.78 | 18.4 µM [rising, single point] |  |
| Cc1cccc(-n2c(O)c(C=NCc3cccnc3)c(=O)[nH]c2=O)c1C | 2.21 |  |  |
| CCCCCCN1CCN(c2ccc(Cl)cc2)CC1 | 1.25 | 0.731 µM [rising, partial curve, poor fit] | 3.66 µM [rising, single point] |
| O=C1NC(=O)N(C2CCCCC2)C(=O)C1C1c2ccccc2C(=O)N1Cc1ccccc1 (centres undefined) | -8.89 | 4.11 µM [falling, full curve, poor fit] |  |
| COC(=O)C(O)(c1ccc(N(C)C(=O)c2ccc(Cl)c(Cl)c2)cc1)C(F)(F)F (centres undefined) |  | 0.517 µM [falling, single point] |  |
| COC(=O)C1=C(c2ccc(-c3ccccc3)c(F)c2)C[C@@H]2CC[C@H]1N2C(=O)NC(C)C | -10.6 | 4.11 µM [rising, partial curve] |  |
| CN(C(=O)Oc1ccc(C(=O)c2ccc(Cl)cc2)cc1)c1ccccc1 | 8.8 |  |  |
| COC(=O)C1=C(c2ccc(OCc3ccccc3)cc2)C[C@@H]2CC[C@H]1N2C(=O)NCCCc1ccccc1 | -50.4 | 6.51 µM [falling, partial curve] | 6.51 µM [falling, partial curve] |
| NCC1(CC(=O)O)CCCCC1 | 23.5 | 0.00411 µM [rising, full curve, poor fit] | 0.651 µM [rising, full curve, poor fit] |

By substructure, the compounds so far containing a COOH group.

| SMILES | cell number change [%] | AC50 [1] | AC50 [2] |
| --- | --- | --- | --- |
| COc1ccc(-c2cc(=NCCCCCC(=O)O)c3cc(C)ccc3o2)cc1 | -0.648 |  |  |
| Cc1cc(OCC(=O)O)c2c3c(c(=O)oc2c1)CCCC3 | 7.15 |  |  |
| NCC1(CC(=O)O)CCCCC1 | 23.5 | 0.00411 µM [rising, full curve, poor fit] | 0.651 µM [rising, full curve, poor fit] |
